Results are given in words; binding and its absence hold for the method and conditions named.
Molecular target: human CYRI-BΔN (residues 26-324) of the CYRI-BΔN:Rac1Q61L fusion (human) (UniProt Q9NUQ9)
Assay: crystal structure; CYRI-BΔN-…-Rac1Q61L fusion with GppNHp and Mg2+, 3.1Å; Rac1 binds in trans to CYRI-BΔN of a symmetry mate; crystals at 279K, 8% PEG4,000, 0.1M Tris pH 8.5, 0.2M sodium acetate; both purified

Amino acid sequences for entries named in this document (tags omitted). A change or cut given only in a name is not applied to a line headed by its entry. Residues count along the entry.
UniProt Q9NUQ9, residues 26-324: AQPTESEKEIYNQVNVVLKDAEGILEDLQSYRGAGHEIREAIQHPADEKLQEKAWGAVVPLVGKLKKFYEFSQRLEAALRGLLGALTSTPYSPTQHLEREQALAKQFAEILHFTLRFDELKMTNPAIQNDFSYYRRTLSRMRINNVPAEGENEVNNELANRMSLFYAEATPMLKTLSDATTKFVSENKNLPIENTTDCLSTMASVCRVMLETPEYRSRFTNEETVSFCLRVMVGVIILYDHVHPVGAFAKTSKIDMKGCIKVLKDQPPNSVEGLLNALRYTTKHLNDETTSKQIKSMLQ

binding: no binding
Substance: human CYRI-BΔN (residues 26-324) of the CYRI-BΔN:Rac1Q61L fusion (from UniProt Q9NUQ9 26-324) (domain or fragment)

Reference: publication PMC7955166
